According to patent US20220227876A1 (COUNCIL OF THE QUEENSLAND INSTITUTE OF MEDICAL RESEARCH, published 2022):
No constants are given. Whether binding was seen depends on the method and setting. Some entries that bind do so weakly or less than the wild type. Where a sequence is shown, tags or fusion partners need not be part of it.

Tests used:
[1] = biological target: T1, human RANK-Fc [RANK AA sequence 30-212] (human) (UniProt Q9Y6Q6); assay: competition phage ELISA on coated human RANK-Fc
T1 sequence (looked up): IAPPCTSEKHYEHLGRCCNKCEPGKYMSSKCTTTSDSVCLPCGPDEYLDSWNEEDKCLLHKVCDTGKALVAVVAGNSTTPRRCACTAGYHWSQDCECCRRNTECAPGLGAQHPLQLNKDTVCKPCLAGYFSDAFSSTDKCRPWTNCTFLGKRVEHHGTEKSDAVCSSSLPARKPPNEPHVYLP

[2] = biological target: T1, human RANK-Fc [RANK AA sequence 30-212] (human); assay: phage ELISA on coated RANK-Fc
[3] = biological target: T2, mouse RANK-Fc [RANK AA sequence 31-214] (mouse) (UniProt O35305); assay: phage ELISA on coated RANK-Fc
T2 sequence (looked up): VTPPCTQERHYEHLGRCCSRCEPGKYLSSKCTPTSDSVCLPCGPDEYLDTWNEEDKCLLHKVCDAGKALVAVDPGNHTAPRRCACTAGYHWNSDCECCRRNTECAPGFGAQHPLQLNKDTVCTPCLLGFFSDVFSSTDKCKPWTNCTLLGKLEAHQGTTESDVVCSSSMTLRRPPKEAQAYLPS

Measured: binding

B1: anti-RANK phagemid R03A03 (Fab, V domains shown)
VH: EVQLVESGGGVVQPGTSLRLSCAASGFTFSSYAMHWVRQAPGKGLEWVAVVSYDGSTKSYADSMKGRFTISRDNSKNTLYLQMNSLRAEDTAVYYCAKDPALRYFDWGYFQHWGQGTLVTVSS
VL: SYELTQPPSVSVSPGQTASITCSGDKLGDKYVCWYQQKPGQSPVLVIYGDSERPSGIPERFSGSNSGNTATLTISGTRAVDEADYYCQAWDSTTPLFGGGTNLTVL
binds: all assays above
